Measured values taken from article PMC4275582.
Results are given in words; binding and its absence hold for the method and conditions named. In cells and extracts the contact can be indirect. Some binding calls cover weakened binding; strength is not graded here. Where a sequence is shown, tags or fusion partners need not be part of it.

By UniProt entry, the sequences of proteins in these tests, tags left out.
UniProt Q9Y265: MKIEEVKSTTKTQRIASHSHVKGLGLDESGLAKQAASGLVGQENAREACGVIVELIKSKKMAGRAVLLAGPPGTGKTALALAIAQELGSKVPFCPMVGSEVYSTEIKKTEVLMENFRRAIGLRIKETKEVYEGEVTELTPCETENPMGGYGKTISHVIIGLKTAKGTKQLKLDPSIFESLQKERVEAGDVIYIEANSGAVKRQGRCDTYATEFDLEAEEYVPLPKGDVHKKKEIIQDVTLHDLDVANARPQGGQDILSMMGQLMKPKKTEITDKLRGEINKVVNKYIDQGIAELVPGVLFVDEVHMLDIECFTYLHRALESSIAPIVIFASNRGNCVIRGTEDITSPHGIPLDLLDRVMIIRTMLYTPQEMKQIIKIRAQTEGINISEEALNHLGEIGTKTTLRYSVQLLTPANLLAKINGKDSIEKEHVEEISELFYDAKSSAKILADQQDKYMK

T1: ITFG1-Myc (human LINKIN) (human) (UniProt Q8TB96)
T1 sequence: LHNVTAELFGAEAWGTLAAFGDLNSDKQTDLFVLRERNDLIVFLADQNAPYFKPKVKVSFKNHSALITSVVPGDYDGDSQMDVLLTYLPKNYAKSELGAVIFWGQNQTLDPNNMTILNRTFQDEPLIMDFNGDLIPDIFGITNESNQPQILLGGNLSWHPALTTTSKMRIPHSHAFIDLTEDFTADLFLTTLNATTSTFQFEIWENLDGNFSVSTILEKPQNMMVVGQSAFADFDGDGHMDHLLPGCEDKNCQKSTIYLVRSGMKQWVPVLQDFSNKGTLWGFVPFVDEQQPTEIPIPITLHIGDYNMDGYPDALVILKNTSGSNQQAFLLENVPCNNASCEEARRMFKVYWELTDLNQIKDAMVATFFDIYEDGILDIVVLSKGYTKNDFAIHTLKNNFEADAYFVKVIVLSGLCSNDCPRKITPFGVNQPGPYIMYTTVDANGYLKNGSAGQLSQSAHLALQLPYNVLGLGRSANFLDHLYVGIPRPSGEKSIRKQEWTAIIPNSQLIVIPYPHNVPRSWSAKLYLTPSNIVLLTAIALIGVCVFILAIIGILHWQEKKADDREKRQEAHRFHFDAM

B1: ITFG1-Myc (human LINKIN) (protein, UniProt Q8TB96 34-612)
chain: T1 sequence

How the values were obtained:
[1] = molecular target: T1, ITFG1-Myc (human LINKIN) (human); assay: co-IP; Myc-beads immunoprecipitation from ITFG1-Myc-transfected and non-transfected HEK 293T cells; Western blot with antibodies against RUVBL1, RUVBL2, α-tubulin, β-tubulin and β-actin
Flag-RUVBL1 (human) = Flag-RUVBL1 (human) (UniProt Q9Y265); assay: co-IP; membrane fraction (Mem-PER Plus kit) of HEK 293T cells transfected with ITFG1-Myc, Flag-RUVBL1 and HA-RUVBL2; Flag-beads immunoprecipitation of Flag-RUVBL1; Western blot; control cells with Myc vector

binding [1]	binding (Flag-RUVBL1 (human))	Molecule
binds	–	RUVBL1 (from UniProt Q9Y265 1-456)
–	binds	B1
